Drawing on patent publication US20160216264A1 (WASHINGTON UNIVERSITY, published 2016), this text covers binding for two molecules.

The target of assay [1] is T1, peptide 2 (synthetic peptide corresponding to the epitope for mAb 12H06) (human).
T1 sequence (peptide): RPYYQGLIDKYC
Kind of assay: peptide preincubation (100 µg/ml), inhibition of immunoblot staining. In general terms: A western blot detects proteins with antibodies after separation by electrophoresis.

The target in assay [2] is T2, peptide 1 (synthetic peptide corresponding to the epitope for mAb 01D10) (human).
T2 sequence (peptide): PSLVYRPDVDPEV
The assay is described as above.

No constants are given. Whether binding was seen depends on the method and setting. Some entries that bind do so weakly or less than the wild type.

B1: mouse monoclonal anti-MIOX antibody 12H06 (antibody, IgG2b, V domains shown)
VH: QVQLQQPGAELVRPGTSVKLSCKASGYTFTSYWMHWVKQRPGQGLEWIGLIDPSDSYTNYNQKFKGKATLTVDTSSSTASMQLSSLTSEDSAVYYCVRTYYHSSYFFAYWGQGTLVTVSS
VL: DIVVTQSPASFAVSLGQRATISCRASKSVSTSGYSYINWYQQKPGQPPKLLIYLASNLESGVPARFSGSGSGTDFTLNIHPVEEEDAATYYCQHSRELPLTFGAGTRLELK
notes: the VH entry runs a few residues into CH1; also called mAb 12H06
As for B1, the binding entry in assay [1] was “binds”.

B2: mouse monoclonal anti-MIOX antibody 01D10 (antibody, IgG2b, V domains shown)
VH: QVQLQQSGPELVKPGASVKISCKASGYSFTSYYIHWVKQRPGQGLEWIGWIYPGSGNSKYNEKFKGKATLTADTSSSTAYMQLSSLTSEDSAVYYCARDGSTYNWNFDVWGTGTTVTVSS
VL: DIQMTQSPASLSASVGETVTITCRTSGNIHNYLAWYQQKQGKSPQLLVYNAKTLADGVPSRFSGSGSGTQYSLKINSLQPEDFGSYYCQHFWSIPFTFGSGTKLEIKR
notes: they run a few residues into the constant regions; Biotinylated when used as capping antibody in the sandwich immunoassay; also called mAb 01D10
B2: in assay [2], the binding entry is “binds”.
